From the supplement of paper PMC11006884
The list shows a part of the results, in another mix than the full data.

Sequences of proteins named here, by UniProt entry; tags and fusion partners are left off. A change or cut given only in a name is not applied to a line headed by its entry.
UniProt P24534: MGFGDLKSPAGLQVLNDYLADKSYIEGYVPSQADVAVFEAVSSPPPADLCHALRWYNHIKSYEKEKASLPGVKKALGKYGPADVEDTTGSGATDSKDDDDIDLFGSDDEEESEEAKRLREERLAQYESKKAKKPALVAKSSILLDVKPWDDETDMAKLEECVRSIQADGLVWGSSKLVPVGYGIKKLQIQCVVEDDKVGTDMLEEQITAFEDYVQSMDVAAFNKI
UniProt P21333, whole entry, looked up: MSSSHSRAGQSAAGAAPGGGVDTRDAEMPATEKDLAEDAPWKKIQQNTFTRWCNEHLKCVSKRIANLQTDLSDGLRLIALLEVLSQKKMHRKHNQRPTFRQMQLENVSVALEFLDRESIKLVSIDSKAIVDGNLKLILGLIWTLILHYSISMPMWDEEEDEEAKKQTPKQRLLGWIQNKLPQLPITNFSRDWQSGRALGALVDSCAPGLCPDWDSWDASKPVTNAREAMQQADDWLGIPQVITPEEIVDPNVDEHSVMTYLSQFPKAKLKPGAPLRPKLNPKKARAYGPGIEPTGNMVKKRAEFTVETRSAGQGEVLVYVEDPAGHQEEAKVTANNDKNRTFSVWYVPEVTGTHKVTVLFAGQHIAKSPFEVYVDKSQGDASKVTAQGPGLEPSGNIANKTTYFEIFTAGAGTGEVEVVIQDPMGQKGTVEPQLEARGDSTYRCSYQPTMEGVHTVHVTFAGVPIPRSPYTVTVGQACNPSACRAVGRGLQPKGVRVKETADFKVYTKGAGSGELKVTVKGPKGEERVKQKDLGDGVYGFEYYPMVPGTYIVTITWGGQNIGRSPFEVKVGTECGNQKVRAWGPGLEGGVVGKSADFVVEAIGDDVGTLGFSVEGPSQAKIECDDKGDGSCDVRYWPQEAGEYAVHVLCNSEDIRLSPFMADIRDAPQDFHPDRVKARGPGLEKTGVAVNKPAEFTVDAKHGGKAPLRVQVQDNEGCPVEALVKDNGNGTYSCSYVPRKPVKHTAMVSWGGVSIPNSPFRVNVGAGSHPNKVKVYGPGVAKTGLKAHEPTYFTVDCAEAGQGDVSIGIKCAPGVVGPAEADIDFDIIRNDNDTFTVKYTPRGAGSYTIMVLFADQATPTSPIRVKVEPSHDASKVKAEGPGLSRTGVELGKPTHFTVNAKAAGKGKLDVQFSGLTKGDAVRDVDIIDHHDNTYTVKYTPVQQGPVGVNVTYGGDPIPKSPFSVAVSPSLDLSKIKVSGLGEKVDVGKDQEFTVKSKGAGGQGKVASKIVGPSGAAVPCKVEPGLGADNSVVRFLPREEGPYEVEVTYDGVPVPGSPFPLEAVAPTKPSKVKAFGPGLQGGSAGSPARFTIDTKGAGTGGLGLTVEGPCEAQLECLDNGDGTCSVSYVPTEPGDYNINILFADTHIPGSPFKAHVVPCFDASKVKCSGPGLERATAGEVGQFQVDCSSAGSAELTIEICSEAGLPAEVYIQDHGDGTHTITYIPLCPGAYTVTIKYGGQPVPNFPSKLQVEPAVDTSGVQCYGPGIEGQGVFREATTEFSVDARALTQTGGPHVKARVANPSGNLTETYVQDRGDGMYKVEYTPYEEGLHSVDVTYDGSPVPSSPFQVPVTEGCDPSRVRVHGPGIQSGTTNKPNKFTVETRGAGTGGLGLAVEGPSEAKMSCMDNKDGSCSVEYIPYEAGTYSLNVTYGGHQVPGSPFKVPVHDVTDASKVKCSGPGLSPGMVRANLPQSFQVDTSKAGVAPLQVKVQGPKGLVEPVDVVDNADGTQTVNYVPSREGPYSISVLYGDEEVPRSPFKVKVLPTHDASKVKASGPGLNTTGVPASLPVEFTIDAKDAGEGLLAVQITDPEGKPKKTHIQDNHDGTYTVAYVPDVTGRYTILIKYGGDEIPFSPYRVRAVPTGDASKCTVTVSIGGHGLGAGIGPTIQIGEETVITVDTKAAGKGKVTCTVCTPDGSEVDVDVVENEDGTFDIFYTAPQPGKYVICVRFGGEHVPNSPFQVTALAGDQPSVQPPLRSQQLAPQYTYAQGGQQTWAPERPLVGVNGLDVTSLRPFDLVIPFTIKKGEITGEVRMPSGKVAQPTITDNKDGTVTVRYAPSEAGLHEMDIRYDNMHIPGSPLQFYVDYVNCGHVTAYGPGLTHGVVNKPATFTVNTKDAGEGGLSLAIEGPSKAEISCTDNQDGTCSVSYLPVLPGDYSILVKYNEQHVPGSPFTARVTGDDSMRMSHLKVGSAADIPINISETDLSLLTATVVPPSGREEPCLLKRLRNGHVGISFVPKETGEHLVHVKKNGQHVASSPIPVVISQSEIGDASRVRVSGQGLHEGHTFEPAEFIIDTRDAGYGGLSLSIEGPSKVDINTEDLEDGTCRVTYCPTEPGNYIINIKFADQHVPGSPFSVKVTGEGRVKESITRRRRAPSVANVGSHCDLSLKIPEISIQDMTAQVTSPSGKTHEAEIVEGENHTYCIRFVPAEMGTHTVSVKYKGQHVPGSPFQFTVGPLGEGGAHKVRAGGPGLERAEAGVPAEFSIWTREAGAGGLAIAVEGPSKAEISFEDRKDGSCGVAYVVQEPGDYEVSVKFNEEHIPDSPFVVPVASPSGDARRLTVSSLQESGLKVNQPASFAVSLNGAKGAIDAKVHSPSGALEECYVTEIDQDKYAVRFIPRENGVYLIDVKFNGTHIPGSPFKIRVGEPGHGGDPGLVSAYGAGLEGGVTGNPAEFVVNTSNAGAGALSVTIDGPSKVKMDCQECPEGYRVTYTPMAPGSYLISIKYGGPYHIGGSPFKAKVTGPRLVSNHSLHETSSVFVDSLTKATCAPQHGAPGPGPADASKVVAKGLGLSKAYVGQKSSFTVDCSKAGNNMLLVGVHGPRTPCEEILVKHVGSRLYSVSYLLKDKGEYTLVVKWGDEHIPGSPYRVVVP
UniProt P22102: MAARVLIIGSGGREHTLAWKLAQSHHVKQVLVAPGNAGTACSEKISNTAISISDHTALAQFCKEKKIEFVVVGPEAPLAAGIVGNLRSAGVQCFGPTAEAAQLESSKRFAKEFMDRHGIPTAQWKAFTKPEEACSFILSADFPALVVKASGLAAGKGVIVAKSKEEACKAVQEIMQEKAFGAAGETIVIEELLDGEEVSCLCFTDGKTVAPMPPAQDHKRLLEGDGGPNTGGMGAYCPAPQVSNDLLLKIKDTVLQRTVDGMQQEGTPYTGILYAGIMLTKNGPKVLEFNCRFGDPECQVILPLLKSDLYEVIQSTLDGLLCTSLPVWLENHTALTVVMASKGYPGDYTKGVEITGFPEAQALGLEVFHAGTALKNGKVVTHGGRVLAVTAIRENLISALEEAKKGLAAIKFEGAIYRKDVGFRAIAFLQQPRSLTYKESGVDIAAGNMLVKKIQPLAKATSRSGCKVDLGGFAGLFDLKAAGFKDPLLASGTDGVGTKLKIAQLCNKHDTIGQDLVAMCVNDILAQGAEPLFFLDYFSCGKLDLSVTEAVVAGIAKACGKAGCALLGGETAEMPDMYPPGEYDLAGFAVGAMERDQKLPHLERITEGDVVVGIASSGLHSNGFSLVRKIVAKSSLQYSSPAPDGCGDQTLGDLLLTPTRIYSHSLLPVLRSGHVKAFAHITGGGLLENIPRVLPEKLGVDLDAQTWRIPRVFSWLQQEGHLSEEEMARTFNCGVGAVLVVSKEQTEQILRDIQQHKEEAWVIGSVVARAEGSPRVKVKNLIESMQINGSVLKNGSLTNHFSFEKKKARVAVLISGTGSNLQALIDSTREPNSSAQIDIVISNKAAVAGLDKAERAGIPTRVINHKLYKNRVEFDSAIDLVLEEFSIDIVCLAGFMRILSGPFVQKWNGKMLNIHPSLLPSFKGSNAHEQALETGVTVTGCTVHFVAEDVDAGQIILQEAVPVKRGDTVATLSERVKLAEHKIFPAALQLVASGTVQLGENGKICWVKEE
UniProt P27708: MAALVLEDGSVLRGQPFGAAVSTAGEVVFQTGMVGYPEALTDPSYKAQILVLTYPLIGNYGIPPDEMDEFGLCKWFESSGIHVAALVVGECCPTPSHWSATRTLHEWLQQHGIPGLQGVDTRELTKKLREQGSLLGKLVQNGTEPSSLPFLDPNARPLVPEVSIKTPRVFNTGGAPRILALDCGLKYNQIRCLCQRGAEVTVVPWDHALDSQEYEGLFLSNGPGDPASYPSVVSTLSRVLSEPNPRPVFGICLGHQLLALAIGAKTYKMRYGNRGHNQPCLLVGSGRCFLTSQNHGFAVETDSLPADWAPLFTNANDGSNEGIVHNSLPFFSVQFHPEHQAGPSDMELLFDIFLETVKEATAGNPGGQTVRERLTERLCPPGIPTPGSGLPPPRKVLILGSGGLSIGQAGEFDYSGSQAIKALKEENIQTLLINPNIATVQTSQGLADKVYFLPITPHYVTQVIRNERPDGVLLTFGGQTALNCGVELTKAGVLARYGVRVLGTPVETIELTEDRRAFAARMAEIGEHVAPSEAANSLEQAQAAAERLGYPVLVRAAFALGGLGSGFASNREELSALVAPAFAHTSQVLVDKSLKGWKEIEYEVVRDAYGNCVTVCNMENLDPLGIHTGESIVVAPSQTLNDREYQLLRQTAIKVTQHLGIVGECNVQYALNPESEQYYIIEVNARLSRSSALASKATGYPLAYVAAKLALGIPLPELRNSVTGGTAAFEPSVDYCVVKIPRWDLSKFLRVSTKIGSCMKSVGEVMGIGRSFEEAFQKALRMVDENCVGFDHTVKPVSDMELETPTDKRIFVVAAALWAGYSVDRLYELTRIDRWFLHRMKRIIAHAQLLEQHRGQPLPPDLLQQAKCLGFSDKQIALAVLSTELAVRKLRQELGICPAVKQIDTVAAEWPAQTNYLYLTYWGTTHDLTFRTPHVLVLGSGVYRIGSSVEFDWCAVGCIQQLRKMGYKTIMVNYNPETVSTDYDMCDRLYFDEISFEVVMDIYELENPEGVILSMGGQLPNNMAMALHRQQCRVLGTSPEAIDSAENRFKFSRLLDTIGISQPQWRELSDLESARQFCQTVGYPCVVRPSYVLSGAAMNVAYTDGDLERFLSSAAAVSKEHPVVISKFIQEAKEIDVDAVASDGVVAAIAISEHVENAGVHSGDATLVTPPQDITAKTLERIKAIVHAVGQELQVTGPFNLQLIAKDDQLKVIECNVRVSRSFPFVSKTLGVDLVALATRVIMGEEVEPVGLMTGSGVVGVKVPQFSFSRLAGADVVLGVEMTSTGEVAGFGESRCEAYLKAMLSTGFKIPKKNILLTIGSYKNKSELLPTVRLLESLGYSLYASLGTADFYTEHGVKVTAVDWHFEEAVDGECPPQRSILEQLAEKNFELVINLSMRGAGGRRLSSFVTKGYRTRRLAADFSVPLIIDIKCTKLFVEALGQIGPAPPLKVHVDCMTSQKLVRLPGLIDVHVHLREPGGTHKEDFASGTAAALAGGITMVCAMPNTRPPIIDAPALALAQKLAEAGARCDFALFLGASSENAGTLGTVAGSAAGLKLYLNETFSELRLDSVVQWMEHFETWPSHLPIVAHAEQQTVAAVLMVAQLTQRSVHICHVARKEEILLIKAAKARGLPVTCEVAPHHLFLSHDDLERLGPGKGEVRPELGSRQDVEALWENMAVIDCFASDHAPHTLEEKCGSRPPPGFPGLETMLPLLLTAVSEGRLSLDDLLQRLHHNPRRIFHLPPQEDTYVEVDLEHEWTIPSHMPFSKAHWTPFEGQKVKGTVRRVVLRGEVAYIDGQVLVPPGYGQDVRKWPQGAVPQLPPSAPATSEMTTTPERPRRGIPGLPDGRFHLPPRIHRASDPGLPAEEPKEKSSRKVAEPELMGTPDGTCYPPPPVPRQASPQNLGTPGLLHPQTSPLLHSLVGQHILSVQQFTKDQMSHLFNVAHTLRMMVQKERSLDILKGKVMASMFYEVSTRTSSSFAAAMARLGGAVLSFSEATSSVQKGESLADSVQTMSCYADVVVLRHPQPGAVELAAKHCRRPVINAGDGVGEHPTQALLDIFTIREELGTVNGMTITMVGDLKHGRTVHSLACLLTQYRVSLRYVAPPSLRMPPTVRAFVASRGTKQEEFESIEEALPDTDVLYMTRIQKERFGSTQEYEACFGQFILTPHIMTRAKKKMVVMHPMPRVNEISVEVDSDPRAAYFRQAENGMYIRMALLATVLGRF
UniProt P23381: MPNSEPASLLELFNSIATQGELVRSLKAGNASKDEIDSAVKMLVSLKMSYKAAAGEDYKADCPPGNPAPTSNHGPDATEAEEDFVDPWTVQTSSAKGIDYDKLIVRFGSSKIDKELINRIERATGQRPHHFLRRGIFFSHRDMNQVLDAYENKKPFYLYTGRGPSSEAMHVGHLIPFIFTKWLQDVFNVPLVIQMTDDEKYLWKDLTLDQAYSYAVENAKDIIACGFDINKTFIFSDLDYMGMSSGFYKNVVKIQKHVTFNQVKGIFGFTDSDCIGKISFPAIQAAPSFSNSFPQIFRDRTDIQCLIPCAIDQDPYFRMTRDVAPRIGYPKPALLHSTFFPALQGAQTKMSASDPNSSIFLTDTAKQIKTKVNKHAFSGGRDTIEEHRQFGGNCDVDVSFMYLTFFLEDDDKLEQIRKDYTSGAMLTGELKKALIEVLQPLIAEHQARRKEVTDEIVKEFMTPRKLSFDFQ

The targets below were run with COC(=O)C#Cc1ccccc1 [methyl 3-phenylpropiolate] (assay: log2 ratio of iodoacetamide-alkyne labeling of the cysteine site, DMSO over compound (competition); higher = stronger covalent engagement of the cysteine by the compound, active = 1 or more). Conditions: 500 µM; treatment time 1 h; system: HEK293T cell lysate.
Summary of the method: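 Reporter intensities give each cysteine's log2 competition ratio as the mean of control channels over the mean of compound channels. The samples were HEK293T lysate (2 mg/mL) given vehicle or electrophile (500 µM, 1 h, ambient temperature), then iodoacetamide alkyne (1 h), followed by click coupling to sCIP-TMT reagents, pooling, trypsin digestion overnight at 37 °C, streptavidin enrichment, acid elution, Orbitrap Eclipse LC-MS/MS with FAIMS and FragPipe quantification. Duplicate channels and three replicates were run, and cysteines quantified in only one replicate were discarded.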

log2 ratio of iodoacetamide-alkyne labeling, inactive:
APEX1 C99 (UniProt P27695) 0.0226, EEF1B2 C161 (UniProt P24534) -0.083, PML C60 (UniProt P29590) 0.184, RPL12 C17 (UniProt P30050) 0.0444, RRM1 C26 (UniProt P23921) 0.0708, GLDC C795 (UniProt P23378) 0.153, FLNA C2293 (UniProt P21333) 0.32, GART C298 (UniProt P22102) 0.0594, FECH C411 (UniProt P22830) 0.319, FLNA C623 (UniProt P21333) -0.0395, TUBG1 C316 (UniProt P23258) 0.154, FLNA C649 (UniProt P21333) -0.00436, CAD C183 (UniProt P27708) 0.278, FLNA C1018 (UniProt P21333) 0.0782, UniProt P28482_C254 -0.0158, UniProt P21127_C440 0.363, UniProt P25398_C92 0.587, FLNA C796 (UniProt P21333) -0.159, APC C914 (UniProt P25054) 0.433, AHCY C195 (UniProt P23526) 0.142, ECHS1 C225 (UniProt P30084) -0.0625, CAST C381 (UniProt P20810) 0.418, WARS C274 (UniProt P23381) 0.166, UQCRC2 C192 (UniProt P22695) 0.435, FLNA C1912 (UniProt P21333) 0.254, UniProt P28290_C599 0.652, PFKL C630 (UniProt P17858) 0.268, LIG1 C508 (UniProt P18858) 0.147, UniProt P25398_C50 0.158, U2AF2 C464 (UniProt P26368) -0.0557, NFKB1 C61 (UniProt P19838) 0.822, MPG C61 (UniProt P29372) 0.662, UniProt P27448_C46 0.428, CALR C163 (UniProt P27797) -0.164, NFKB1 C925 (UniProt P19838) 0.193, DDX5 C89 (UniProt P17844) -0.0239, APEX1 C93 (UniProt P27695) 0.0645
